The assay deals with GATOR2, recombinant, transiently co-expressed (HA-Mios, HA-WDR59, HA-WDR24, HA-Sec13, HA-Seh1L) (Homo sapiens (Human)) (UniProt Q9NXC5). The assay can be described thus: co-immunoprecipitation from HEK-293T with increasing amounts of FLAG-Sestrin2, immunoblot (FIG. 5B). A general note: Immunoblotting shows a protein as a band on a membrane.

Sequences of proteins named here, by UniProt entry; tags and fusion partners are left off. A change or cut given only in a name is not applied to a line headed by its entry.
UniProt Q9NXC5: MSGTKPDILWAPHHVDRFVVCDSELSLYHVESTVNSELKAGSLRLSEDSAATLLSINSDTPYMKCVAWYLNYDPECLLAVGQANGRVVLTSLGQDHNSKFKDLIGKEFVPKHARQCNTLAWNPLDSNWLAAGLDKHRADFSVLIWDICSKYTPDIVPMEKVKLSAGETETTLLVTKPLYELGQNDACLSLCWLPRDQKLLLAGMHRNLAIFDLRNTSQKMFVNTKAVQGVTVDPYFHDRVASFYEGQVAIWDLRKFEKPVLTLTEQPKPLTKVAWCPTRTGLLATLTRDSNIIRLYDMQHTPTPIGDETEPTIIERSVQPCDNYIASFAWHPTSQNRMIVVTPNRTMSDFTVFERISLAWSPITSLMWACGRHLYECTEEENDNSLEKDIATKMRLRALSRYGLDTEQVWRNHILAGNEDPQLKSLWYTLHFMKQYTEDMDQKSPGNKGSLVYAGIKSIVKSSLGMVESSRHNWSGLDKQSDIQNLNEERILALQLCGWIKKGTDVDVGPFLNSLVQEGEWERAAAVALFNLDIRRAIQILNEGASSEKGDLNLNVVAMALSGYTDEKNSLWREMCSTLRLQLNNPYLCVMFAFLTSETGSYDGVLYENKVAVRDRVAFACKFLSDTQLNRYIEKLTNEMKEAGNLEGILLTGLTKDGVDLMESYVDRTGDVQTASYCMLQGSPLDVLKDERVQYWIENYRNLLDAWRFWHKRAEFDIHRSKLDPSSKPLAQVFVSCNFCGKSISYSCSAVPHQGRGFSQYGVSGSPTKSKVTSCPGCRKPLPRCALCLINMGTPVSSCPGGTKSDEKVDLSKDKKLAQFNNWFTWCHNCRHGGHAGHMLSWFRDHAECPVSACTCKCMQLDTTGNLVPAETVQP
UniProt O75140: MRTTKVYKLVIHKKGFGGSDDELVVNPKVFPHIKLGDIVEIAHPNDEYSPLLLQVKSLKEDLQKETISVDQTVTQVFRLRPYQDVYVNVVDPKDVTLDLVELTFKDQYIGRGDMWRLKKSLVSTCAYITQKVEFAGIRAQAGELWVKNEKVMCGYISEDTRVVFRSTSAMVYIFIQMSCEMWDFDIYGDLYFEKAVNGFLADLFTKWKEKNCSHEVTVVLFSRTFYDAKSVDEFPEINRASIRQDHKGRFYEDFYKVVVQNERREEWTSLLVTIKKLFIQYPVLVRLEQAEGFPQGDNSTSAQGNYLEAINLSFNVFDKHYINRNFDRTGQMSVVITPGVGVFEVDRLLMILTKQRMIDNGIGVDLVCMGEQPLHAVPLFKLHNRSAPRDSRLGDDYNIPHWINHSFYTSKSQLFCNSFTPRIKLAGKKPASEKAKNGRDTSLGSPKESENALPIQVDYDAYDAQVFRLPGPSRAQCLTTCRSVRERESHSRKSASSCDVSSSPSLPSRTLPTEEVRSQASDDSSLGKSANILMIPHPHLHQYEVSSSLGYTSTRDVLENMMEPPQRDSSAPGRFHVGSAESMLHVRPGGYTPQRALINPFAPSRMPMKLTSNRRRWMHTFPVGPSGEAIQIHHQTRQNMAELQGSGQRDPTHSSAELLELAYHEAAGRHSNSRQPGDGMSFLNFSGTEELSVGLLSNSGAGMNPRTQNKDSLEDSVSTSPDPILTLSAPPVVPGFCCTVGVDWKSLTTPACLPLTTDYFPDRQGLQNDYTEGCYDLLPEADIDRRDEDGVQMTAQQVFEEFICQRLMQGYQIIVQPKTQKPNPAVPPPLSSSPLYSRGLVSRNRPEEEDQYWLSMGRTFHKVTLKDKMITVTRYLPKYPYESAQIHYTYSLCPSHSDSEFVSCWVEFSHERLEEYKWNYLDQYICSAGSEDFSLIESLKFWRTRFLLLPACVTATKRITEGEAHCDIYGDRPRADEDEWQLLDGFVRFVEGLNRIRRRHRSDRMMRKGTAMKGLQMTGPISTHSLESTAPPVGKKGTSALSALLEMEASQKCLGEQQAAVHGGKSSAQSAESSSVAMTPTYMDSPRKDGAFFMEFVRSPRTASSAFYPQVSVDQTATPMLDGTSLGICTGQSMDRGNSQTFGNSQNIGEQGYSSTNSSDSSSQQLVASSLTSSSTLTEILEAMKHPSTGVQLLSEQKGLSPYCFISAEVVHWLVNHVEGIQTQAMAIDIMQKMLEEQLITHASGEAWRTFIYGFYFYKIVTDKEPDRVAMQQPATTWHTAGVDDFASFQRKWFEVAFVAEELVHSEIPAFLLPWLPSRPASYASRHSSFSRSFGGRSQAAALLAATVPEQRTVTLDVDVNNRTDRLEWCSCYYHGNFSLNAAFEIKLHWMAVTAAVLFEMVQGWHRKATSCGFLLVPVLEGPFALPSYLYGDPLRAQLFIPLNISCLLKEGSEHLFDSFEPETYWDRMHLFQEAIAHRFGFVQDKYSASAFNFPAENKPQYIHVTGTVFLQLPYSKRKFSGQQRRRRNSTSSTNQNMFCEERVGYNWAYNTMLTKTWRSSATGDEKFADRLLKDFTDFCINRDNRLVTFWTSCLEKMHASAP

These are yes or no findings as the source states them, for the method shown. Binding seen in cells or lysates may run through a third protein. Some binding calls cover weakened binding; strength is not graded here.

For the substance “GATOR1, recombinant (HA-Depdc5, HA-Npr13, HA-Npr12) (from UniProt O75140 1-1603; Q8WTW4 1-380; Q12980 1-569)”, the binding entry is reported as “binds”.

The values above are taken from patent US20170285043A1.
